Consider one substance from patent US20070218061A1 (VASGENE THERAPEUTICS, published 2007).

Sequences of proteins named here, by UniProt entry; tags and fusion partners are left off. A change or cut given only in a name is not applied to a line headed by its entry.
UniProt P52799: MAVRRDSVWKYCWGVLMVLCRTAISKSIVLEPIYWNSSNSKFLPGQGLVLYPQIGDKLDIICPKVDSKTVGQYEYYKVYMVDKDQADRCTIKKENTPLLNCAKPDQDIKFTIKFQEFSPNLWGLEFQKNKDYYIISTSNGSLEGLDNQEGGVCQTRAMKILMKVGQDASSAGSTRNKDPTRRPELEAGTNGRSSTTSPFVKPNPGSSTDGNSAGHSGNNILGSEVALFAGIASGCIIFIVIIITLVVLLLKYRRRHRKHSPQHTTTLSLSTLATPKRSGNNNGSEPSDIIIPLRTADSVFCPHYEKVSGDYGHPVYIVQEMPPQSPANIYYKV

The assay deals with T1, human EphB4 (binding partner, form not stated) (human) (UniProt P54760).
T1 sequence: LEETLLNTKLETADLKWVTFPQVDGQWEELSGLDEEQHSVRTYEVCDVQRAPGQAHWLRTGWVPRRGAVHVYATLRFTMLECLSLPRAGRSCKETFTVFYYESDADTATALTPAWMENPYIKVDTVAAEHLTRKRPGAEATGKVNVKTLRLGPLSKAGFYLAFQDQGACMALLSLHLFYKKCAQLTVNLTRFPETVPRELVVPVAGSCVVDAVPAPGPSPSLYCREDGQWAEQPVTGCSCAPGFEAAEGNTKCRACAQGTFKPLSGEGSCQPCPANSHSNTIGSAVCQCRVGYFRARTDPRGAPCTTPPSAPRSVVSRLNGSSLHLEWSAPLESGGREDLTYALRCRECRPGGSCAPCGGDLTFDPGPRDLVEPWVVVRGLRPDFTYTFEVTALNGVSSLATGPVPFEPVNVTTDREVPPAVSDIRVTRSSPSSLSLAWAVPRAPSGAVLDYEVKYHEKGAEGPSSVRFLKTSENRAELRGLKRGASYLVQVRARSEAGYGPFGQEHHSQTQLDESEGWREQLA
In words: biochemical assays; EphB4 partner reagent not named.

These are yes or no findings as the source states them, for the method shown. Some binding calls cover weakened binding; strength is not graded here.

With “B2EC (from UniProt P52799 28-225) (ligand)”, the binding result is given as “binds”.
